# Laboratory results as given in paper PMC7819943, “Rice protein-binding microarrays: a tool to detect cis-acting elements near promoter regions in rice”.
# Amino acid sequences for entries named in this document (tags omitted).
# UniProt Q0JBA9, entry or part of it: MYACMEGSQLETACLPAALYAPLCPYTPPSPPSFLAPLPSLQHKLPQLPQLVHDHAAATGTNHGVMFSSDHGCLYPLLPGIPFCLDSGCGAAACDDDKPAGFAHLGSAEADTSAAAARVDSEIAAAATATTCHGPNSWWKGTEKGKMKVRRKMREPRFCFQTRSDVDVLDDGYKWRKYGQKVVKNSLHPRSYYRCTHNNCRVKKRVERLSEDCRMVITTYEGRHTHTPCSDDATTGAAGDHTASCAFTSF
# The other results are listed elsewhere or left out.
# Target: OsWRKY34 (Oryza sativa, UniProt Q0JBA9 1-250)
# Test: protein-binding microarray (RPBM); PBS, 2% BSA, 51.3 ng/ul salmon testes DNA, 50 uM zinc acetate, 200 nM TF, 25 C, 1 h; high values mean tight binding
# Details: protein: recombinant; tags: N-terminal polyhistidine and DsRed monomer fusion (pET32a); label: CyDye5-dUTP incorporated in the synthesized complementary strand; 3' TTTTT single-stranded linker to array surface; dsDNA, one strand shown
# Procedure, shortened: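 In PBS with 2% BSA, salmon testes DNA and 50 µM zinc acetate, 200 nM protein was incubated on a custom Agilent array at 25 °C for 1 h and then washed off. The array had been made double-stranded by primer extension with Cy5-dUTP and blocked with 2% BSA. The proteins were transcription factors fused N-terminally to polyhistidine and DsRed, expressed in E. coli BL21-CodonPlus and purified on Ni–NTA. The binding signal is per-feature fluorescence intensity (arbitrary units) from an Axon 4000B scanner.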
row,Sequence,binding signal
1,GCCAAACCACATGCATCCTATTATTTTGAAATTCATGAAGCGGAGTCACCTAGTGCAG,11000 fluorescence intensity (a.u.)
2,TGCTGACTTGTTGCAACTTTGAACTACTTTCATCGTATAGCGGAGTCACCTAGTGCAG,8560 fluorescence intensity (a.u.)
3,ACTTAGTATGAACTAGATACTGCCGCGCGTTTGGGCATTCCGGAGTCACCTAGTGCAG,9230 fluorescence intensity (a.u.)
4,TCGATTCGACGACACCTTCATTTTTATTTTCTTCCTTGTGCGGAGTCACCTAGTGCAG,9200 fluorescence intensity (a.u.)
5,GATATTGGCTGTGTTCAGTTCCCTTTAAACTTTCAACTTTCGGAGTCACCTAGTGCAG,8480 fluorescence intensity (a.u.)
6,GAGTATTTTTTATCCGGCCTCTATATCCATTTAAATATATCGGAGTCACCTAGTGCAG,8200 fluorescence intensity (a.u.)
7,GCTAAGTACTCCGTTGTCACCGCGTCCTTGGTTTTGCTAACGGAGTCACCTAGTGCAG,13100 fluorescence intensity (a.u.)
8,CGGGCCAGCAAATCCTTCATCACTGTCTGCTGGATCGGCCCGGAGTCACCTAGTGCAG,9160 fluorescence intensity (a.u.)
9,GCTTCCTCCCTACGAGCACGACCCACCCACGTCATCATCCCGGAGTCACCTAGTGCAG,8290 fluorescence intensity (a.u.)
10,GGCGTCAAATTTGGGTATAAACAATTTCCTTTTCTCTTTCCGGAGTCACCTAGTGCAG,8390 fluorescence intensity (a.u.)
11,CTTCAACCCCACGGCCCAGTACTGTATATCGATGGCCCACCGGAGTCACCTAGTGCAG,8170 fluorescence intensity (a.u.)
12,TCACTCATCGCCGCTCCGCCATTGCCCAGAGCTTTTCTTTCGGAGTCACCTAGTGCAG,12700 fluorescence intensity (a.u.)
13,ATGTCCATGCAACGTTTCTCAATTCAATGAGCAGGAAGACCGGAGTCACCTAGTGCAG,8230 fluorescence intensity (a.u.)
14,TCGTGGTGGTTTTGTTTCTCTCCTTCCCACCTACTCTCTCCGGAGTCACCTAGTGCAG,8390 fluorescence intensity (a.u.)
15,CTTGCATACCCTTCCCGTCAGTTGACCGTGTATTTTCTATCGGAGTCACCTAGTGCAG,14400 fluorescence intensity (a.u.)
16,ACAAATCCCCGAACTTGCGAAGTATCGGCCTCTTCTTCTTCGGAGTCACCTAGTGCAG,12000 fluorescence intensity (a.u.)
17,TCCCCAGCGGCGTACCAGTTCTCCCGTACCATCTGCAGAACGGAGTCACCTAGTGCAG,8110 fluorescence intensity (a.u.)
18,CCACCGCGCGCGCGCTCTCCACAGAAAATAATCTCCGCCGCGGAGTCACCTAGTGCAG,8400 fluorescence intensity (a.u.)
19,AAGGGTACACTTTATTTTGTTGGGACAAACTTTGACCAATCGGAGTCACCTAGTGCAG,8510 fluorescence intensity (a.u.)
20,CACACCCTTACTGTAGCTATCACTGCACAAAGCCAAAACCCGGAGTCACCTAGTGCAG,9130 fluorescence intensity (a.u.)
21,AATACGGGCCGCCTGTGCTCTTCGTACTTCCACCGCTTTCCGGAGTCACCTAGTGCAG,9870 fluorescence intensity (a.u.)
22,GCCATGGGGTTGACTCTCTGGGTGTTCTTGGTTTCTTGGCCGGAGTCACCTAGTGCAG,10500 fluorescence intensity (a.u.)
23,GAACAGGCAGATTACAATGCATTGTTGTTTCATTGTATCGCGGAGTCACCTAGTGCAG,9900 fluorescence intensity (a.u.)

# A different layout for part of the listing above.
row	Sequence	binding signal
7	GCTAAGTACTCCGTTGTCACCGCGTCCTTGGTTTTGCTAACGGAGTCACCTAGTGCAG	13100 fluorescence intensity (a.u.)
8	CGGGCCAGCAAATCCTTCATCACTGTCTGCTGGATCGGCCCGGAGTCACCTAGTGCAG	9160 fluorescence intensity (a.u.)
